This passage reports binding results from publication doi:10.1101/2025.10.31.685804.

Amino acid sequences for entries named in this document (tags omitted).
UniProt Q15436: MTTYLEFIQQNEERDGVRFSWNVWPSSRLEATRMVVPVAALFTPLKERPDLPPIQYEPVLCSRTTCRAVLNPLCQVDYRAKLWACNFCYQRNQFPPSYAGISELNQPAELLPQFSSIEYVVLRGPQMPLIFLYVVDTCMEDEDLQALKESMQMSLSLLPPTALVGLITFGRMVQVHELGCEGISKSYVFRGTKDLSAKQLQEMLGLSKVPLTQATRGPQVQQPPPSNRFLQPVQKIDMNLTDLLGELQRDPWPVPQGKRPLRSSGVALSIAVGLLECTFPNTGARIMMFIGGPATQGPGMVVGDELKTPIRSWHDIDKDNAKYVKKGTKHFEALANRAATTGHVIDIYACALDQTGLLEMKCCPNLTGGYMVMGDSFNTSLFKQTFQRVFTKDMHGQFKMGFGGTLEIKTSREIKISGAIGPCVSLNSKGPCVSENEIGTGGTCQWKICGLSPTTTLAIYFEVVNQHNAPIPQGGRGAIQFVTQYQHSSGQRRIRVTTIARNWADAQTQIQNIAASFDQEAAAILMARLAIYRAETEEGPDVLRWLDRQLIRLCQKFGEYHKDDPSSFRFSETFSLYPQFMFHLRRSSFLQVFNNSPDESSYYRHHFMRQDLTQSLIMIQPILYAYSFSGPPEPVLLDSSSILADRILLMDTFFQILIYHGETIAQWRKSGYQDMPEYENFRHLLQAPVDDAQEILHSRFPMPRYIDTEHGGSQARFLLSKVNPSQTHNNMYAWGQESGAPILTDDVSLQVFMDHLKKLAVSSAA
UniProt Q15437: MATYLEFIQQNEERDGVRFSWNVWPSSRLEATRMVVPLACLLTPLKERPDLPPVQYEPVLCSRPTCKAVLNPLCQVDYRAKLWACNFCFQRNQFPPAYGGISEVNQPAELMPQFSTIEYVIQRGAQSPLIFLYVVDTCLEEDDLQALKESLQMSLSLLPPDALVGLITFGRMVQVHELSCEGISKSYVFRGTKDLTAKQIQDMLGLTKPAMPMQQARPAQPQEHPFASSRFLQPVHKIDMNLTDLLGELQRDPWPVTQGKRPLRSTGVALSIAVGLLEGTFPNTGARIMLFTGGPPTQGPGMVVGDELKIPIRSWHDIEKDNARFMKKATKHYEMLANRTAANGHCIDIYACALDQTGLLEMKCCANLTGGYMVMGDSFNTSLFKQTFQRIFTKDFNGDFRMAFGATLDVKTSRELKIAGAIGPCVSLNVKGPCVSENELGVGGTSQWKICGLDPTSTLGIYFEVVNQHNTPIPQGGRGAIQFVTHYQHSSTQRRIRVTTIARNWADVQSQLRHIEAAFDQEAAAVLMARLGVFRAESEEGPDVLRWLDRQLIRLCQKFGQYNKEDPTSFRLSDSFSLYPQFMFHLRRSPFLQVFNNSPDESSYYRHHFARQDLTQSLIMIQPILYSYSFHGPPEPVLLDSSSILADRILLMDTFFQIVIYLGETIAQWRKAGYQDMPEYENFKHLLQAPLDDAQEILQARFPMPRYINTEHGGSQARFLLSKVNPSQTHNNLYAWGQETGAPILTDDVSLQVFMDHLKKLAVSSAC
UniProt O15027: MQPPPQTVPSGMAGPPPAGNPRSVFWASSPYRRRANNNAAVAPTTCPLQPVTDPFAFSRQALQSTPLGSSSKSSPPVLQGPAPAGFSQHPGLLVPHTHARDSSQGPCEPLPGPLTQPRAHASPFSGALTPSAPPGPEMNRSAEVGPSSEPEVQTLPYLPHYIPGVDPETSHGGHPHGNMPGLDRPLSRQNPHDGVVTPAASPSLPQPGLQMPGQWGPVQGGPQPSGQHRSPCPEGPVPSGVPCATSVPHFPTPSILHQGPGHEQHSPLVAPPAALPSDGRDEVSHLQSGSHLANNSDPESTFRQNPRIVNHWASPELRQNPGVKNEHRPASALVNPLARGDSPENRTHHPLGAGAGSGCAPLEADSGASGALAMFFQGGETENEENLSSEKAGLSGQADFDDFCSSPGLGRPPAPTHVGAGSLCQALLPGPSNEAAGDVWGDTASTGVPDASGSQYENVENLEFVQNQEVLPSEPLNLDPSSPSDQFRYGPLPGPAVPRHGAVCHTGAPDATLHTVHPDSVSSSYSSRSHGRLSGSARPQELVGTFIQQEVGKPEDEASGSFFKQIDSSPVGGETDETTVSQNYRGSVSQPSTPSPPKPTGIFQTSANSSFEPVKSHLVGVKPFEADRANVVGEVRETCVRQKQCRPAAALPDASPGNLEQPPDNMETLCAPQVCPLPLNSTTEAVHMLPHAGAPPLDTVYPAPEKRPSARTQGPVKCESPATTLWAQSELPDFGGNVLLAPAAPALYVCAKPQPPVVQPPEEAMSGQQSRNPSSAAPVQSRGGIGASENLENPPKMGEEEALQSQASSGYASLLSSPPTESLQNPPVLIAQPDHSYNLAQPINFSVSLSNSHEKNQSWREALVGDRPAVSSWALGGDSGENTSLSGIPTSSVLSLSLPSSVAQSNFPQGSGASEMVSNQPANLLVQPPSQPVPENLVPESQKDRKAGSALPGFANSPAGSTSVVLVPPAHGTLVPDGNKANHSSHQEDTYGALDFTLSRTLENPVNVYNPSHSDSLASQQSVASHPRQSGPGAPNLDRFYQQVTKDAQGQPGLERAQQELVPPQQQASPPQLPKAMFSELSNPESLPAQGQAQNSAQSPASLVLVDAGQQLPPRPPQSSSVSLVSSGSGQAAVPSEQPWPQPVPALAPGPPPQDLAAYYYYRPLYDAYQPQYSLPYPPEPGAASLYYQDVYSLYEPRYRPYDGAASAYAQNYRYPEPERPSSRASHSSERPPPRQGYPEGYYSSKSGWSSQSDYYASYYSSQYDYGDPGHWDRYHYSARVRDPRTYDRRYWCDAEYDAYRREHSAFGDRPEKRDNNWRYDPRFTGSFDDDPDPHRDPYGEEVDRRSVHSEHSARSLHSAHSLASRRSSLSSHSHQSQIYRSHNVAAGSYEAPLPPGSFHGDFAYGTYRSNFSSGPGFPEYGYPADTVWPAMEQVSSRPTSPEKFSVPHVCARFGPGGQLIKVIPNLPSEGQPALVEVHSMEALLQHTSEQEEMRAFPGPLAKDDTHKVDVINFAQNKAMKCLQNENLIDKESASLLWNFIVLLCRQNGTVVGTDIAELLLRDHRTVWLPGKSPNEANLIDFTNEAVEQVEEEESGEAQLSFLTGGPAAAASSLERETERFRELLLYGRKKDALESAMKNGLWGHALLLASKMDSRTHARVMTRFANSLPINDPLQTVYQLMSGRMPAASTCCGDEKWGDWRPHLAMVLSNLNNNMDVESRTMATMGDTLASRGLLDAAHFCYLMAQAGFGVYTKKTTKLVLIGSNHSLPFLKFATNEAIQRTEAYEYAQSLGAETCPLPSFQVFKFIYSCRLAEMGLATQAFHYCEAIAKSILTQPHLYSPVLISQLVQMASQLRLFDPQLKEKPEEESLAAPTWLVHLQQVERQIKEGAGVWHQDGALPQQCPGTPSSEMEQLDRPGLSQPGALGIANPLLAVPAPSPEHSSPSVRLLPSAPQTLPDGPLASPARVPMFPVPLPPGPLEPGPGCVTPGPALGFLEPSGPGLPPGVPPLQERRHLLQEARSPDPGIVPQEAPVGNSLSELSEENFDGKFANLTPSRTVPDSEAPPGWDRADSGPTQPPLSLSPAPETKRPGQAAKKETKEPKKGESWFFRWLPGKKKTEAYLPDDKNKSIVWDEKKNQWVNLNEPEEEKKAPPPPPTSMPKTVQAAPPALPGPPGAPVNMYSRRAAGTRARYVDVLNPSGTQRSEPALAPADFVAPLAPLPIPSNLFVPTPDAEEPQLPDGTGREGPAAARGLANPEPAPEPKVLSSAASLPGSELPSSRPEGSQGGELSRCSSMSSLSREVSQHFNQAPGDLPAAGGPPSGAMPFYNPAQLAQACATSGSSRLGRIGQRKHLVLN

What all share (test): co-IP
For test [1], the target named is T1, endogenous SEC31A tagged with FLAG (FLAG-SEC31A knock-in) (human (endogenous in U2OS)), O94979.
T1 chain: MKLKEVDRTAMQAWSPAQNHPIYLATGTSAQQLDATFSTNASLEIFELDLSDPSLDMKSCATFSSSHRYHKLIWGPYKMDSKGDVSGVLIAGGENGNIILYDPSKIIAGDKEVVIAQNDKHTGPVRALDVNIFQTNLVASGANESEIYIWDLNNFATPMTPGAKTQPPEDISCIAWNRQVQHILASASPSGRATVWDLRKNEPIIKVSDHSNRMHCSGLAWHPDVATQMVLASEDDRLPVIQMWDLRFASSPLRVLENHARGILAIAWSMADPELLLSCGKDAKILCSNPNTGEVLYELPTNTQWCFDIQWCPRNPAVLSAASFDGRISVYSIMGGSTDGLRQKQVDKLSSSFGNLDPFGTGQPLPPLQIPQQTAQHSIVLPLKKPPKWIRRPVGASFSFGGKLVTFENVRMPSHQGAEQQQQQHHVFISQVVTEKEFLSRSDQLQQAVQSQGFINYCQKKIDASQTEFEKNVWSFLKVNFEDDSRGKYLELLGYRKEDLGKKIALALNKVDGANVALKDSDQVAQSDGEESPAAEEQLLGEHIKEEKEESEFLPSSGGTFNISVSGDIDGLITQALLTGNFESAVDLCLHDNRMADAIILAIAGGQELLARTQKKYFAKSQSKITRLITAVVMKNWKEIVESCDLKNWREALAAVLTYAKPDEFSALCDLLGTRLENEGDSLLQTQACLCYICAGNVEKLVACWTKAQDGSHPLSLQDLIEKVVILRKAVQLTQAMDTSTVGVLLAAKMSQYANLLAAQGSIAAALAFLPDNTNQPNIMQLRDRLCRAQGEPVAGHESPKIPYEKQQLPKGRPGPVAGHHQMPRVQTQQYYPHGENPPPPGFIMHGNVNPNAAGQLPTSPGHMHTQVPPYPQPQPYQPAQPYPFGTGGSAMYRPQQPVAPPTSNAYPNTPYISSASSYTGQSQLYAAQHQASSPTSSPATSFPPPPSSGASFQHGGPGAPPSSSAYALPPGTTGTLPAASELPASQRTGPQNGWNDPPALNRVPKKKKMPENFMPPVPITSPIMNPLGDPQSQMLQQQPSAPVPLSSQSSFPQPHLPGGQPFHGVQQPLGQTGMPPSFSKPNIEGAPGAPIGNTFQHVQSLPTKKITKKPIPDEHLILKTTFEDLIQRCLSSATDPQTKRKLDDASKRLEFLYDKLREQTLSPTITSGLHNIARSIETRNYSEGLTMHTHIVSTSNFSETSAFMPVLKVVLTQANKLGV
The note with it: remark: other sources report otherwise.

In test [2] the target is T2, EYFP-SEC31A wild-type (UniProt O94979).
T2 sequence: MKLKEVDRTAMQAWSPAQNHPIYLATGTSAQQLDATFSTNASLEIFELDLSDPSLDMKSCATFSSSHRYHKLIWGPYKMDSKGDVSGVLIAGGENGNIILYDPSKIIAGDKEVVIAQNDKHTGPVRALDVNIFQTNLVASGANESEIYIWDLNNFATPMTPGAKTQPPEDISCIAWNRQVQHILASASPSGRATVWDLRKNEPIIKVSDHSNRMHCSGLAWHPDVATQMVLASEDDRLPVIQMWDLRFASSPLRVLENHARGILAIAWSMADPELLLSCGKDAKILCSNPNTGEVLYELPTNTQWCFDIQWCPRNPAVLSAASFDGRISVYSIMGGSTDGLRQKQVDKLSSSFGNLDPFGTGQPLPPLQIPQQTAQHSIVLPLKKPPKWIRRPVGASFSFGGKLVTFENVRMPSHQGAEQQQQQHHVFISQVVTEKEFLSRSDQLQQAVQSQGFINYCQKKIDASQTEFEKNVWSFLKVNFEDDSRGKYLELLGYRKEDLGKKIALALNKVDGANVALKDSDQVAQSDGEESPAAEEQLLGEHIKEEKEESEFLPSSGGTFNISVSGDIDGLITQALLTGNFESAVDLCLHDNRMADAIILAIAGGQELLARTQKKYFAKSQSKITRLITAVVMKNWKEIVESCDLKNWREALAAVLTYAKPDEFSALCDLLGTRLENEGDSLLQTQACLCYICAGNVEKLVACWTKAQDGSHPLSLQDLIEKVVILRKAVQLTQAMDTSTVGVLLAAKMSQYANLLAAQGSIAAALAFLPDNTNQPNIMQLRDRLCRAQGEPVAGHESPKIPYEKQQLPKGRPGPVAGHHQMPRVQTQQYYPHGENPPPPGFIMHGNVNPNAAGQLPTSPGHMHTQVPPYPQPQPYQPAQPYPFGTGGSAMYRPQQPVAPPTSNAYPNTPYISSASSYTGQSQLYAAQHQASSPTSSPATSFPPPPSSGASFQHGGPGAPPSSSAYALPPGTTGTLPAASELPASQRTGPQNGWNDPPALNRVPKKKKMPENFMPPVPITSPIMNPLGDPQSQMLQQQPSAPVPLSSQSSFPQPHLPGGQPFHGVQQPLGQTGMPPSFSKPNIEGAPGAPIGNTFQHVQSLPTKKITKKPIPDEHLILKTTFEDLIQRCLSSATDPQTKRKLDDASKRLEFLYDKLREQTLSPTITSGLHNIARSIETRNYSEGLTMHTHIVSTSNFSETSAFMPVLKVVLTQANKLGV

Another test deals with T3, HA-SEC13 (UniProt P55735).
T3 sequence: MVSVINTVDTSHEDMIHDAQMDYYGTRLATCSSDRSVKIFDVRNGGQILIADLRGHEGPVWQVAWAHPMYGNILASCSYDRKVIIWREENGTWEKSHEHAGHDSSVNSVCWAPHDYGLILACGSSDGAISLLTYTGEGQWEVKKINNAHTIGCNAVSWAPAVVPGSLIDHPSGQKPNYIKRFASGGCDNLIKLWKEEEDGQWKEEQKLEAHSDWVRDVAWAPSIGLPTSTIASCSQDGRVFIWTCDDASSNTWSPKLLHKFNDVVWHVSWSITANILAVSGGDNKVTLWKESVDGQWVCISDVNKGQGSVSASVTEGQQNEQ

The target of another test is SEC23A (UniProt Q15436).
The target of the next test is SEC23B (UniProt Q15437).
Test [3] has as its target modified EGFP (mEGFP)-tagged SEC16A (UniProt O15027).
Test [4] deals with T2, EYFP-SEC31A wild-type. This is another data set of the same source.
The target of test [5] is modified EGFP (mEGFP)-tagged SEC16A (UniProt O15027). The source holds these as a separate data set.

Where two headings read alike, the source gives them in different places. These are yes or no findings as the source states them, for the method shown. In cells and extracts the contact can be indirect. Some entries that bind do so weakly or less than the wild type. For part of these data: Sequences can lack the tags named with a protein.

B1: endogenous ULK1, O75385 1-1050 (enzyme)
chain: MEPGRGGTETVGKFEFSRKDLIGHGAFAVVFKGRHREKHDLEVAVKCINKKNLAKSQTLLGKEIKILKELKHENIVALYDFQEMANSVYLVMEYCNGGDLADYLHAMRTLSEDTIRLFLQQIAGAMRLLHSKGIIHRDLKPQNILLSNPAGRRANPNSIRVKIADFGFARYLQSNMMAATLCGSPMYMAPEVIMSQHYDGKADLWSIGTIVYQCLTGKAPFQASSPQDLRLFYEKNKTLVPTIPRETSAPLRQLLLALLQRNHKDRMDFDEFFHHPFLDASPSVRKSPPVPVPSYPSSGSGSSSSSSSTSHLASPPSLGEMQQLQKTLASPADTAGFLHSSRDSGGSKDSSCDTDDFVMVPAQFPGDLVAEAPSAKPPPDSLMCSGSSLVASAGLESHGRTPSPSPPCSSSPSPSGRAGPFSSSRCGASVPIPVPTQVQNYQRIERNLQSPTQFQTPRSSAIRRSGSTSPLGFARASPSPPAHAEHGGVLARKMSLGGGRPYTPSPQVGTIPERPGWSGTPSPQGAEMRGGRSPRPGSSAPEHSPRTSGLGCRLHSAPNLSDLHVVRPKLPKPPTDPLGAVFSPPQASPPQPSHGLQSCRNLRGSPKLPDFLQRNPLPPILGSPTKAVPSFDFPKTPSSQNLLALLARQGVVMTPPRNRTLPDLSEVGPFHGQPLGPGLRPGEDPKGPFGRSFSTSRLTDLLLKAAFGTQAPDPGSTESLQEKPMEIAPSAGFGGSLHPGARAGGTSSPSPVVFTVGSPPSGSTPPQGPRTRMFSAGPTGSASSSARHLVPGPCSEAPAPELPAPGHGCSFADPITANLEGAVTFEAPDLPEETLMEQEHTEILRGLRFTLLFVQHVLEIAALKGSASEAAGGPEYQLQESVVADQISLLSREWGFAEQLVLYLKVAELLSSGLQSAIDQIRAGKLCLSSTVKQVVRRLNELYKASVVSCQGLSLRLQRFFLDKQRLLDRIHSITAERLIFSHAVQMVQSAALDEMFQHREGCVPRYHKALLLLEGLQHMLSDQADIENVTKCKLCIERRLSALLTGICA
For the molecule B1, the binding result in test [1] is listed as “binds”.

B2: wild-type ULK1 (Unc-51-like kinase 1) (enzyme, UniProt O70405 1-1051)
chain: MEPGRGGVETVGKFEFSRKDLIGHGAFAVVFKGRHREKHDLEVAVKCINKKNLAKSQTLLGKEIKILKELKHENIVALYDFQEMANSVYLVMEYCNGGDLADYLHTMRTLSEDTVRLFLQQIAGAMRLLHSKGIIHRDLKPQNILLSNPGGRRANPSNIRVKIADFGFARYLQSNMMAATLCGSPMYMAPEVIMSQHYDGKADLWSIGTIVYQCLTGKAPFQASSPQDLRLFYEKNKTLVPAIPRETSAPLRQLLLALLQRNHKDRMDFDEFFHHPFLDASTPIKKSPPVPVPSYPSSGSGSSSSSSSASHLASPPSLGEMPQLQKTLTSPADAAGFLQGSRDSGGSSKDSCDTDDFVMVPAQFPGDLVAEAASAKPPPDSLLCSGSSLVASAGLESHGRTPSPSPTCSSSPSPSGRPGPFSSNRYGASVPIPVPTQVHNYQRIEQNLQSPTQQQTARSSAIRRSGSTTPLGFGRASPSPPSHTDGAMLARKLSLGGGRPYTPSPQVGTIPERPSWSRVPSPQGADVRVGRSPRPGSSVPEHSPRTTGLGCRLHSAPNLSDFHVVRPKLPKPPTDPLGATFSPPQTSAPQPCPGLQSCRPLRGSPKLPDFLQRSPLPPILGSPTKAGPSFDFPKTPSSQNLLTLLARQGVVMTPPRNRTLPDLSEASPFHGQQLGSGLRPAEDTRGPFGRSFSTSRITDLLLKAAFGTQASDSGSTDSLQEKPMEIAPSAGFGGTLHPGARGGGASSPAPVVFTVGSPPSGATPPQSTRTRMFSVGSSSSLGSTGSSSARHLVPGACGEAPELSAPGHCCSLADPLAANLEGAVTFEAPDLPEETLMEQEHTETLHSLRFTLAFAQQVLEIAALKGSASEAAGGPEYQLQESVVADQISQLSREWGFAEQLVLYLKVAELLSSGLQTAIDQIRAGKLCLSSTVKQVVRRLNELYKASVVSCQGLSLRLQRFFLDKQRLLDGIHGVTAERLILSHAVQMVQSAALDEMFQHREGCVPRYHKALLLLEGLQHTLTDQADIENIAKCKLCIERRLSALLSGVYA
In the case of B2, the binding result in the test with EYFP-SEC31A wild-type [2] is on record as “binds”; in the test with HA-SEC13, “no binding”; with SEC23A, “binds”; with SEC23B, “binds”; in test [3] it was “binds”; in the test with EYFP-SEC31A wild-type [4] it was “binds”.

B3: ULK1-4SA mutant (AMPK phosphorylation-resistant) (enzyme, UniProt O70405 1-1051)
chain: MEPGRGGVETVGKFEFSRKDLIGHGAFAVVFKGRHREKHDLEVAVKCINKKNLAKSQTLLGKEIKILKELKHENIVALYDFQEMANSVYLVMEYCNGGDLADYLHTMRTLSEDTVRLFLQQIAGAMRLLHSKGIIHRDLKPQNILLSNPGGRRANPSNIRVKIADFGFARYLQSNMMAATLCGSPMYMAPEVIMSQHYDGKADLWSIGTIVYQCLTGKAPFQASSPQDLRLFYEKNKTLVPAIPRETSAPLRQLLLALLQRNHKDRMDFDEFFHHPFLDASTPIKKSPPVPVPSYPSSGSGSSSSSSSASHLASPPSLGEMPQLQKTLTSPADAAGFLQGSRDSGGSSKDSCDTDDFVMVPAQFPGDLVAEAASAKPPPDSLLCSGSSLVASAGLESHGRTPSPSPTCSSSPSPSGRPGPFSSNRYGASVPIPVPTQVHNYQRIEQNLQSPTQQQTARSSAIRRSGATTPLGFGRASPSPPSHTDGAMLARKLSLGGGRPYTPSPQVGTIPERPSWSRVPSPQGADVRVGRSPRPGSSVPEHSPRTTGLGCRLHAAPNLSDFHVVRPKLPKPPADPLGATFSPPQTSAPQPCPGLQSCRPLRGSPKLPDFLQRSPLPPILGSPTKAGPSFDFPKTPASQNLLTLLARQGVVMTPPRNRTLPDLSEASPFHGQQLGSGLRPAEDTRGPFGRSFSTSRITDLLLKAAFGTQASDSGSTDSLQEKPMEIAPSAGFGGTLHPGARGGGASSPAPVVFTVGSPPSGATPPQSTRTRMFSVGSSSSLGSTGSSSARHLVPGACGEAPELSAPGHCCSLADPLAANLEGAVTFEAPDLPEETLMEQEHTETLHSLRFTLAFAQQVLEIAALKGSASEAAGGPEYQLQESVVADQISQLSREWGFAEQLVLYLKVAELLSSGLQTAIDQIRAGKLCLSSTVKQVVRRLNELYKASVVSCQGLSLRLQRFFLDKQRLLDGIHGVTAERLILSHAVQMVQSAALDEMFQHREGCVPRYHKALLLLEGLQHTLTDQADIENIAKCKLCIERRLSALLSGVYA
Turning to B3, the binding entry (in the test with EYFP-SEC31A wild-type [4]; in test [5]) was “binds” throughout.
